These are yes or no findings as the source states them, for the method shown. In cells and extracts the contact can be indirect. Some results given as binding are weak or reduced against the parent protein; the word gives no strength. Sequences can lack the tags named with a protein.
Tests used:
[1] = target: human FLAG-tagged SHOC1 (human) (UniProt Q5VXU9); experiment: co-IP
[2] = target: human SHOC1 ΔF2 aa289-576del (human) (UniProt Q5VXU9); experiment: co-IP
[3] = target: human SHOC1 ΔF1 aa1-288del (human) (UniProt Q5VXU9); experiment: co-IP
[4] = target: human SHOC1 C-terminal 577-1444 (human) (UniProt Q5VXU9); experiment: co-IP
[5] = target: human SHOC1, Bi-FC (split Venus) fusion (human) (UniProt Q5VXU9); experiment: split reporter

Row | Binder | binding [1] | binding [2] | binding [3] | binding [4] | binding [5]
1 | human MYC-tagged TEX11 (protein, UniProt Q8IYF3 1-940) MISAHCNLRLLCSSDSSASASQVAGTTEVVENLVTNDNSPNIPEAIDRLFSDIANINRESMAEITDIQIEEMAVNLWNWALTIGGGWLVNEEQKIRLHYVACKLLSMCEASFASEQSIQRLIMMNMRIGKEWLDAGNFLIADECFQAAVASLEQLYVKLIQRSSPEADLTMEKITVESDHFRVLSYQAESAVAQGDFQRASMCVLQCKDMLMRLPQMTSSLHHLCYNFGVETQKNNKYEESSFWLSQSYDIGKMDKKSTGPEMLAKVLRLLATNYLDWDDTKYYDKALNAVNLANKEHLSSPGLFLKMKILLKGETSNEELLEAVMEILHLDMPLDFCLNIAKLLMDHERESVGFHFLTIIHERFKSSENIGKVLILHTDMLLQRKEELLAKEKIEEIFLAHQTGRQLTAESMNWLHNILWRQAASSFEVQNYTDALQWYYYSLRFYSTDEMDLDFTKLQRNMACCYLNLQQLDKAKEAVAEAERHDPRNVFTQFYIFKIAVIEGNSERALQAIITLENILTDEESEDNDLVAERGSPTMLLSLAAQFALENGQQIVAEKALEYLAQHSEDQEQVLTAVKCLLRFLLPKIAEMPESEDKKKEMDRLLTCLNRAFVKLSQPFGEEALSLESRANEAQWFRKTAWNLAVQCDKDPVMMREFFILSYKMSQFCPSDQVILIARKTCLLMAVAVDLEQGRKASTAFEQTMFLSRALEEIQTCNDIHNFLKQTGTFSNDSCEKLLLLYEFEVRAKLNDPLLESFLESVWELPHLETKTFETIAIIAMEKPAHYPLIALKALKKALLLYKKEEPIDISQYSKCMHNLVNLSVPDGASNVELCPLEEVWGYFEDALSHISRTKDYPEMEILWLMVKSWNTGVLMFSRSKYASAEKWCGLALRFLNHLTSFKESYETQMNMLYSQLVEALSNNKGPVFHEHGYWSKSD | binds | no binding | no binding | no binding | 
2 | human TEX11, Bi-FC (split Venus) fusion (protein, UniProt Q8IYF3 1-940) MISAHCNLRLLCSSDSSASASQVAGTTEVVENLVTNDNSPNIPEAIDRLFSDIANINRESMAEITDIQIEEMAVNLWNWALTIGGGWLVNEEQKIRLHYVACKLLSMCEASFASEQSIQRLIMMNMRIGKEWLDAGNFLIADECFQAAVASLEQLYVKLIQRSSPEADLTMEKITVESDHFRVLSYQAESAVAQGDFQRASMCVLQCKDMLMRLPQMTSSLHHLCYNFGVETQKNNKYEESSFWLSQSYDIGKMDKKSTGPEMLAKVLRLLATNYLDWDDTKYYDKALNAVNLANKEHLSSPGLFLKMKILLKGETSNEELLEAVMEILHLDMPLDFCLNIAKLLMDHERESVGFHFLTIIHERFKSSENIGKVLILHTDMLLQRKEELLAKEKIEEIFLAHQTGRQLTAESMNWLHNILWRQAASSFEVQNYTDALQWYYYSLRFYSTDEMDLDFTKLQRNMACCYLNLQQLDKAKEAVAEAERHDPRNVFTQFYIFKIAVIEGNSERALQAIITLENILTDEESEDNDLVAERGSPTMLLSLAAQFALENGQQIVAEKALEYLAQHSEDQEQVLTAVKCLLRFLLPKIAEMPESEDKKKEMDRLLTCLNRAFVKLSQPFGEEALSLESRANEAQWFRKTAWNLAVQCDKDPVMMREFFILSYKMSQFCPSDQVILIARKTCLLMAVAVDLEQGRKASTAFEQTMFLSRALEEIQTCNDIHNFLKQTGTFSNDSCEKLLLLYEFEVRAKLNDPLLESFLESVWELPHLETKTFETIAIIAMEKPAHYPLIALKALKKALLLYKKEEPIDISQYSKCMHNLVNLSVPDGASNVELCPLEEVWGYFEDALSHISRTKDYPEMEILWLMVKSWNTGVLMFSRSKYASAEKWCGLALRFLNHLTSFKESYETQMNMLYSQLVEALSNNKGPVFHEHGYWSKSD |  |  |  |  | binds

Reference: paper doi:10.1101/2025.05.28.656576
